Reference: paper PMC9643838
Results are given in words; binding and its absence hold for the method and conditions named.

Protein sequences, listed by entry. Tags and fused reporters are not part of them. Residues count along the entry.
UniProt P00451, residues 2041-2351: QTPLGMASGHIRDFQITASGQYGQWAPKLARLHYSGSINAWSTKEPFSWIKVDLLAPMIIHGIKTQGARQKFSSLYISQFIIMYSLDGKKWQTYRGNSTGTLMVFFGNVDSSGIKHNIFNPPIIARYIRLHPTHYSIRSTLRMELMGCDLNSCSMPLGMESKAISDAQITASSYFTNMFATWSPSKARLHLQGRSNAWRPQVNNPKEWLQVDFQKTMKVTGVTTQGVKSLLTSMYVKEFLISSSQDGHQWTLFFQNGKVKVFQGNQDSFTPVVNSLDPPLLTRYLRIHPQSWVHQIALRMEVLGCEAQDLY

Target: human factor VIII C1C2 domains, wildtype (human) (UniProt P00451)
Test: SEC; purified wildtype C1C2 at 225 mM NaCl; test for higher order oligomers; both purified

human factor VIII C1C2 domains, wildtype (from UniProt P00451 2041-2351) (domain or fragment)
binding: no binding
